Publication doi:10.1101/2022.08.17.504273
These are yes or no findings as the source states them, for the method shown. For some assays here: Sequences can lack the tags named with a protein. Blank lines part the entries; values can stand above or below the binder they belong to.

By UniProt entry, the sequences of proteins in these tests, tags left out. Residues count along the entry.
UniProt Q14203, residues 350-547: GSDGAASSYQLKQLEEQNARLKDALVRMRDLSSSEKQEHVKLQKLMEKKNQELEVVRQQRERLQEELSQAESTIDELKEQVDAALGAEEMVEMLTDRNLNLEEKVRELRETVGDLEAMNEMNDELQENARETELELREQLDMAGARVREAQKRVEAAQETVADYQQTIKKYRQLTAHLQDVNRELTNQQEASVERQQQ

Key:
[1] = biological target: T1, GST-JIP3^563–585 (JIP3^helix construct) (human) (UniProt Q9UPT6); assay: pull-down
T1 sequence: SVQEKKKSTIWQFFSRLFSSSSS

[2] = biological target: GST-CC1B (GST-Psc-DCTN1(residues 350-547)-GFP-6xHis) (human (by the printed UniProt entry)) (UniProt Q14203); assay: pull-down
[3] = biological target: WD40-SNAP (LIS1 residues 90-410) (human) (UniProt P43034); assay: SEC-MALS

binding [1]: no binding
B1: JIP3 1-108_V60Q (RH1-domain mutant) (domain or fragment, UniProt Q9ESN9-5 1-108)
chain: MMEIQMDEGGGVVVYQDDYCSGSVMSERVSGLAGSIYREFERLIHCYDEEVVKELMPLVQNVLENLDSVLSENQEHEVELELLREDNEQLLTQYEREKALRKQAEEKF

binding [2]: no binding
B2: LIS1^mut (protein, UniProt P43034 1-410)
chain: MVASQEARDELNRAIADYLRSNGYEEAYSVFKKEAELDVNEELDKEYAGLLEEEWAAVAELAEEVMELRSKLNEAKEEFTSGGPLGQKRDPKEWIPRPPEKYALSGHRSPVTRVIFHPVFSVMVSASEDATIKVWDYETGDFERTLKGHTDSVQDISFDHSGKLLASCSADMTIKLWDFQGFECIRTMHGHDHNVSSVAIMPNGDHIVSASRDKTIKMWEVQTGYCVKTFTGHREWVRMVRPNQDGTLIASCSNDQTVRVWVVATKECKAELREHEHVVECISWAPESSYSSISEATGSETKKSGKPGPFLLSGSRDKTIKMWDVSTGMCLMTLVGHDNWVRGVLFHSGGKFILSCADDKTLRVWDYKNKRCMKTLNAHEHFVTSLDFHKTAPYVVTGSVDQTVKVWECR

binding [2]: no binding
B3: GCN4-WD40-SNAP (protein, UniProt P43034 81-410)
chain: GSGSVKQLEDKVEELLSKNAHLENEVARLKKLVSGGPLGQKRDPKEWIPRPPEKYALSGHRSPVTRVIFHPVFSVMVSASEDATIKVWDYETGDFERTLKGHTDSVQDISFDHSGKLLASCSADMTIKLWDFQGFECIRTMHGHDHNVSSVAIMPNGDHIVSASRDKTIKMWEVQTGYCVKTFTGHREWVRMVRPNQDGTLIASCSNDQTVRVWVVATKECKAELREHEHVVECISWAPESSYSSISEATGSETKKSGKPGPFLLSGSRDKTIKMWDVSTGMCLMTLVGHDNWVRGVLFHSGGKFILSCADDKTLRVWDYKNKRCMKTLNAHEHFVTSLDFHKTAPYVVTGSVDQTVKVWECR

binding [2]: no binding | binding [3]: no binding (tested: 1 mg/mL)
B4: WD40-SNAP (LIS1 residues 90-410) (domain or fragment, UniProt P43034 90-410)
chain: DPKEWIPRPPEKYALSGHRSPVTRVIFHPVFSVMVSASEDATIKVWDYETGDFERTLKGHTDSVQDISFDHSGKLLASCSADMTIKLWDFQGFECIRTMHGHDHNVSSVAIMPNGDHIVSASRDKTIKMWEVQTGYCVKTFTGHREWVRMVRPNQDGTLIASCSNDQTVRVWVVATKECKAELREHEHVVECISWAPESSYSSISEATGSETKKSGKPGPFLLSGSRDKTIKMWDVSTGMCLMTLVGHDNWVRGVLFHSGGKFILSCADDKTLRVWDYKNKRCMKTLNAHEHFVTSLDFHKTAPYVVTGSVDQTVKVWECR
